# In patent US5807825A, “Platelet aggregation inhibitors” (COR Therapeutics, Inc., priority 1995, dated 1998):
# Not every detail of the peptide structures is certain; ends, links or a residue may be inferred. Where a SMILES comes first, the peptide text is derived from it. Bridges are numbered along the chain shown (N, C = ends). [ ]: non-standard residue; d: D form. hArg = N=C(N)NCCCC[C@H](N)C(=O)O; Mpa = O=C(O)CCS
# Tested on: M21 melanoma cells
# Experiment: attachment of 35S-methionine labelled M21 melanoma cells to vitronectrin-coated plates
# Format: cell-based
# Settings: FIGS. 31-34
# Procedure: M21 melanoma cells, which express high levels of the vitronectrin receptor, were metabolically labelled with ^35 S-methionine, and then added to 24-well tissue culture plates coated with vitronectrin. An incubation period of 1 hr at 37° C. was allowed for cell attachment, and this was followed by a wash to remove non-adherent cells. After washing, the adherent cells were solubilized, and the supernatants placed in a liquid scintillation counter. The fraction of cells remaining adherent was calculated by dividing the cpm in the solubilized supernatants by the cpm in the total number of cells added to each well. The effects of purified snake venom peptides and synthetic cyclic peptides on cell adhesion was determined by including them with the M21 cells during the incubation period.
# M21 melanoma cells were labelled with ^35 S-methionine, and then added to vitronectrin-coated plates in the presence of the indicated concentrations of purified snake venom peptides. Cell attachment was measured by solubilizing the cells remaining after an incubation and wash, as described in Section C, on page 40.
structure (smiles),measurement,value
N=C(N)NCCCC[C@@H]1NC(=O)CCSSC[C@@H](C(N)=O)NC(=O)[C@@H]2CCCN2C(=O)[C@H](Cc2c[nH]c3ccccc23)NC(=O)[C@H](CC(=O)O)NC(=O)CNC1=O [#60] ([Mpa][hArg]GDWPC-NH2; disulfide 1-7),"effect on M21 cell adhesion/attachment to vitronectrin, in words",relatively less effective in preventing cell adhesion to victronectin
